The values that follow come from the supplement of paper PMC10735217.

This is one part of the list. This data set is noisy: repeats of one test often differ as much as different tests do.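 In a drug-repurposing library screen, luminescence reads luciferase driven by eight TEAD-binding elements, stably integrated into human kidney-derived cells. Compounds scoring over five robust Z scores above the plate mean are called hits.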

This experiment has as its system HEK293A TEAD-LUC reporter. In words: TEAD-luciferase reporter activity (YAP activation), robust Z score vs plate; higher = stronger YAP/TEAD activation. The following applies: 24 h.

On to `O=C(Nc1ccc2c(c1)CCN(Cc1ncc[nH]1)C2)c1ccccc1-c1ccc(C(F)(F)F)cc1`, for which the TEAD-luciferase reporter activity runs as follows: (compound concentration: 200 nM) inactive: -1.22; (compound concentration: 2 uM) inactive: -0.53; (compound concentration: 10 uM) inactive: 0.886.
Regarding `CC(=O)NS(=O)(=O)c1ccc(N)cc1`, the TEAD-luciferase reporter activity (compound concentration: 2 uM) was inactive: 0.438.
For the compound `CC(=O)NS(=O)(=O)c1ccc(N)cc1` [Sulfacetamide144-80-9], the TEAD-luciferase reporter activity (compound concentration: 200 nM) is inactive: 0.248 and the TEAD-luciferase reporter activity (compound concentration: 10 uM) was inactive: -1.19.
Take `Cc1csc(Cl)c1Nc1nc2ccccc2[nH]1`: the TEAD-luciferase reporter activity is inactive: -0.573 (compound concentration: 200 nM), inactive: -1.47 (compound concentration: 2 uM) and inactive: -1.51 (compound concentration: 10 uM).
In the case of `Cc1nc(O)c(N)cc1-c1ccccc1`, the TEAD-luciferase reporter activity was inactive: -0.474 (compound concentration: 200 nM), inactive: -0.144 (compound concentration: 2 uM) and inactive: 1.59 (compound concentration: 10 uM).
Regarding `CSc1nc(=O)c2[nH]cc(Cc3cccnc3)c2[nH]1`, the TEAD-luciferase reporter activity (compound concentration: 200 nM) is inactive: 3.26 and the TEAD-luciferase reporter activity (compound concentration: 10 uM) is active: 7.15.
Regarding `NNC(=O)c1ccncc1` [Isoniazid54-85-3], the TEAD-luciferase reporter activity is, setting by setting: (compound concentration: 200 nM) inactive: -1.27; (compound concentration: 10 uM) inactive: -0.143.
Take `NNC(=O)c1ccncc1`: the TEAD-luciferase reporter activity (compound concentration: 2 uM) is inactive: 2.02.
As for `NC1CCN(c2nc3c(cc2F)c(=O)c(C(=O)O)cn3-c2ccc(F)cc2F)C1` (configuration not stated) [tosufloxacin tosilate], the TEAD-luciferase reporter activity runs as follows: (compound concentration: 200 nM) inactive: 0.895; (compound concentration: 2 uM) inactive: -0.712; (compound concentration: 10 uM) inactive: 2.2.
Turning to `O=C1Nc2ccccc2C12NCCc1c2[nH]c2ccc(F)cc12` (configuration not stated), the TEAD-luciferase reporter activity runs as follows: (compound concentration: 200 nM) inactive: -1.58; (compound concentration: 2 uM) inactive: -0.468; (compound concentration: 10 uM) inactive: 0.233.
For `N#Cc1c(N)nc(SCc2csc(-c3ccc(Cl)cc3)n2)c(C#N)c1-c1ccc(OCCO)cc1` [capadenoson] the same measures were inactive: -0.474, inactive: -1.91 and inactive: -0.914.
In the case of `O=C1CNC(=O)CN1` [piperazinedione], the TEAD-luciferase reporter activity (compound concentration: 200 nM) is inactive: 0.712, the TEAD-luciferase reporter activity (compound concentration: 2 uM) is inactive: -1.05 and the TEAD-luciferase reporter activity (compound concentration: 10 uM) is inactive: 0.126.
Take `COc1ccc(C(=O)c2ccccc2)c(O)c1`: the TEAD-luciferase reporter activity (compound concentration: 2 uM) was inactive: -1.19.
Turning to `COc1ccc(C(=O)c2ccccc2)c(O)c1` [Oxybenzone], the TEAD-luciferase reporter activity (compound concentration: 200 nM) was inactive: 3.45 and the TEAD-luciferase reporter activity (compound concentration: 10 uM) was inactive: -1.34.
For the compound `NC(=O)c1[nH]cnc1O`, the TEAD-luciferase reporter activity by setting is: (compound concentration: 200 nM) inactive: 0.127; (compound concentration: 2 uM) inactive: 0.375; (compound concentration: 10 uM) inactive: 2.
Take `COc1cc(C(=O)N[C@@H]2OC[C@@H](c3ccccc3)N3CCCC[C@@H]23)cc(OC)c1OC`: the TEAD-luciferase reporter activity (compound concentration: 200 nM) was inactive: -1.3, the TEAD-luciferase reporter activity (compound concentration: 2 uM) is inactive: 1.03 and the TEAD-luciferase reporter activity (compound concentration: 10 uM) is inactive: 0.922.
Take `N[C@@H](CCC(=O)O)C(=O)N[C@@H](Cc1c[nH]c2ccccc12)C(=O)O`: the TEAD-luciferase reporter activity by setting is: (compound concentration: 200 nM) inactive: -0.543; (compound concentration: 2 uM) inactive: 0.651; (compound concentration: 10 uM) inactive: 1.59.
As for `CCOC(=O)C1CCN(C(=O)c2c[nH]c3ncccc23)CC1`, the TEAD-luciferase reporter activity is, setting by setting: (compound concentration: 200 nM) inactive: -1.06; (compound concentration: 10 uM) inactive: -0.835.
Consider `CCC(=O)Nc1ccc(C(=O)O)c(NC(=O)c2ccc(C(=O)O)cc2)c1` [AM-682 metabolite], for which the TEAD-luciferase reporter activity by setting is: (compound concentration: 200 nM) inactive: -1.39; (compound concentration: 2 uM) inactive: 0.555; (compound concentration: 10 uM) inactive: 1.03.
`CCC(=O)Nc1ccc(C(=O)O)c(NC(=O)c2ccc(C(=O)O)cc2)c1`: the TEAD-luciferase reporter activity (compound concentration: 2 uM) was inactive: -1.49.
With `C#CC1(OCC(O)CN2CCN(c3cccc(C(F)(F)F)c3)CC2)CCCCC1` (configuration not stated) [terciprazine], the TEAD-luciferase reporter activity is, setting by setting: (compound concentration: 200 nM) inactive: -1.4; (compound concentration: 2 uM) inactive: -0.338; (compound concentration: 10 uM) inactive: -2.49.
Turning to `CCc1ccc2c(-c3cccc(Cl)c3)nc(=O)n(CC)c2n1`, the TEAD-luciferase reporter activity is inactive: 2.13 (compound concentration: 200 nM), inactive: 0.124 (compound concentration: 2 uM) and inactive: -0.529 (compound concentration: 10 uM).
For the compound `CNC(=O)c1cc(Oc2ccc(NC(=O)Nc3ccc(Cl)c(C(F)(F)F)c3)cc2)ccn1` [Sorafenib], the TEAD-luciferase reporter activity runs as follows: (compound concentration: 200 nM) inactive: -2.61; (compound concentration: 2 uM) inactive: -2.58; (compound concentration: 10 uM) inactive: -1.89.
On the same counts, the results for `COc1cc2nc(N3CCN(C(=O)C4=CC5C=CC4CC5)CC3)nc(N)c2cc1OC` (configuration not stated) are inactive: -1.16, inactive: 3.43 and inactive: 0.549.
`COc1ccnc2c1CCCCC2[S@+]([O-])c1nc2ccccc2[nH]1` (some centres not stated): the TEAD-luciferase reporter activity reads like this: (compound concentration: 200 nM) inactive: -1.25; (compound concentration: 2 uM) inactive: 0.645; (compound concentration: 10 uM) inactive: -1.36.
Take `O=C1[C@H](Cc2ccc(O)cc2)N2C(=O)CCN(C(=O)NCc3ccccc3)[C@H]2CN1Cc1cccc2ccccc12`: the TEAD-luciferase reporter activity by setting is: (compound concentration: 200 nM) inactive: 0.598; (compound concentration: 2 uM) inactive: -1.09; (compound concentration: 10 uM) inactive: 0.869.
Turning to `CCc1nc2c(C)cc(C)nc2n1Cc1ccc([C@@H](c2ccccc2)[C@@H](C)C(=O)O)cc1`, the TEAD-luciferase reporter activity runs as follows: (compound concentration: 200 nM) inactive: 0.513; (compound concentration: 2 uM) inactive: -0.339; (compound concentration: 10 uM) inactive: 2.19.
For `CCCCN(O)C(=O)Nc1cc(C2CCC(c3cc(OC)c(OC)c(OC)c3)O2)cc(OC)c1OCCC` (configuration not stated), the TEAD-luciferase reporter activity by setting is: (compound concentration: 200 nM) inactive: -0.312; (compound concentration: 2 uM) inactive: -0.795; (compound concentration: 10 uM) inactive: 1.14.
For `C/C=C1/[C@H](O[C@@H]2O[C@H](CO)[C@@H](O)[C@H](O)[C@H]2O)OC=C(C(=O)OC)[C@H]1CC(=O)OCCc1ccc(O)c(O)c1`, the TEAD-luciferase reporter activity (compound concentration: 200 nM) was inactive: -1.63, the TEAD-luciferase reporter activity (compound concentration: 2 uM) is inactive: 0.173 and the TEAD-luciferase reporter activity (compound concentration: 10 uM) is inactive: -0.252.
On the same counts, the results for `C/N=C1/SCC(O)(c2ccc(Cl)c(S(N)(=O)=O)c2)N1C` (configuration not stated) [tizolemide] are inactive: 0.0155, inactive: -0.296 and inactive: -0.598.
